Data as given in patent US7078203.
No constants are given. Whether binding was seen depends on the method and setting. Some entries that bind do so weakly or less than the wild type. Where a sequence is shown, tags or fusion partners need not be part of it.

Amino acid sequences for entries named in this document (tags omitted). A change or cut given only in a name is not applied to a line headed by its entry.
UniProt P04386: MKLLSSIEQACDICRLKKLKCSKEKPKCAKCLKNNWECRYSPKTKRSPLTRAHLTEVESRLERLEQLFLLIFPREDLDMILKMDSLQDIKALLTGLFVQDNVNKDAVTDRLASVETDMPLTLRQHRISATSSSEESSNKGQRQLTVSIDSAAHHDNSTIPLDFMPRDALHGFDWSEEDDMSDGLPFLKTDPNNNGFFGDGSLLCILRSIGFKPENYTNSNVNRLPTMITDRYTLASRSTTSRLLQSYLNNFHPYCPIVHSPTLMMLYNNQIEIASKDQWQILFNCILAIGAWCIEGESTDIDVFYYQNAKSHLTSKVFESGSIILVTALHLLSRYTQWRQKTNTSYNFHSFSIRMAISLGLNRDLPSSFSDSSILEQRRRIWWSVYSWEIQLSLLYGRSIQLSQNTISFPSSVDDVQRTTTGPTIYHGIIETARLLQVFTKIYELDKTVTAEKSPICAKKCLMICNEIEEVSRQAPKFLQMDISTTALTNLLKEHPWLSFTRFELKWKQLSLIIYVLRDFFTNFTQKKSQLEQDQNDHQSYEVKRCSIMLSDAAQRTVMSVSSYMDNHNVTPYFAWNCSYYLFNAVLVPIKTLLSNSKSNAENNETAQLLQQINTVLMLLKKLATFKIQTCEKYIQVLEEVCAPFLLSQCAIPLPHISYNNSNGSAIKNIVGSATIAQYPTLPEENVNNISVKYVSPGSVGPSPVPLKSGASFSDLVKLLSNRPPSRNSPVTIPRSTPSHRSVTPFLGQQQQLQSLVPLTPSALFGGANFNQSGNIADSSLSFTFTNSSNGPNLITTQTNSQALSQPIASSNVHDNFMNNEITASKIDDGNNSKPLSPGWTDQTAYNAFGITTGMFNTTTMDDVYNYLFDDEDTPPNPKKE
UniProt Q12018: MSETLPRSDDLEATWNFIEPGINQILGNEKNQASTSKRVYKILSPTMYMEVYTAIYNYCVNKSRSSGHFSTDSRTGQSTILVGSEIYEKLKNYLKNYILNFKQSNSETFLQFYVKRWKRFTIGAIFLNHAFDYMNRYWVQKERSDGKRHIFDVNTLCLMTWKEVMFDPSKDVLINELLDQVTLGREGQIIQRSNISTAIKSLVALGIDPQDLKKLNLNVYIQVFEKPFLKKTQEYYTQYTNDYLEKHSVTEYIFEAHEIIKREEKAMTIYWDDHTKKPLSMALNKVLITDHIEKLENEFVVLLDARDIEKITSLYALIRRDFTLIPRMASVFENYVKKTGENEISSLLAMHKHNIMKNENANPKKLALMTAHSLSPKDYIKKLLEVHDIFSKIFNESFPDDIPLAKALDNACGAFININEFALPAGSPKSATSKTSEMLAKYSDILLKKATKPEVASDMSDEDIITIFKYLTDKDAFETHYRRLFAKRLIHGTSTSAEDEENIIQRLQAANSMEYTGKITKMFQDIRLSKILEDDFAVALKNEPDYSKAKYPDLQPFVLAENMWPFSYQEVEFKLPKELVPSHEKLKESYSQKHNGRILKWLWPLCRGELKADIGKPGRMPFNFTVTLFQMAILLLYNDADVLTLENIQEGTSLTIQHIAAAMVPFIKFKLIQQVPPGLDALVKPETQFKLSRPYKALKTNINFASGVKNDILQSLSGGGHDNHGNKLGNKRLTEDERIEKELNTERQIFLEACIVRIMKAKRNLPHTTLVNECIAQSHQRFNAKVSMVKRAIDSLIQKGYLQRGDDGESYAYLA
UniProt P53202: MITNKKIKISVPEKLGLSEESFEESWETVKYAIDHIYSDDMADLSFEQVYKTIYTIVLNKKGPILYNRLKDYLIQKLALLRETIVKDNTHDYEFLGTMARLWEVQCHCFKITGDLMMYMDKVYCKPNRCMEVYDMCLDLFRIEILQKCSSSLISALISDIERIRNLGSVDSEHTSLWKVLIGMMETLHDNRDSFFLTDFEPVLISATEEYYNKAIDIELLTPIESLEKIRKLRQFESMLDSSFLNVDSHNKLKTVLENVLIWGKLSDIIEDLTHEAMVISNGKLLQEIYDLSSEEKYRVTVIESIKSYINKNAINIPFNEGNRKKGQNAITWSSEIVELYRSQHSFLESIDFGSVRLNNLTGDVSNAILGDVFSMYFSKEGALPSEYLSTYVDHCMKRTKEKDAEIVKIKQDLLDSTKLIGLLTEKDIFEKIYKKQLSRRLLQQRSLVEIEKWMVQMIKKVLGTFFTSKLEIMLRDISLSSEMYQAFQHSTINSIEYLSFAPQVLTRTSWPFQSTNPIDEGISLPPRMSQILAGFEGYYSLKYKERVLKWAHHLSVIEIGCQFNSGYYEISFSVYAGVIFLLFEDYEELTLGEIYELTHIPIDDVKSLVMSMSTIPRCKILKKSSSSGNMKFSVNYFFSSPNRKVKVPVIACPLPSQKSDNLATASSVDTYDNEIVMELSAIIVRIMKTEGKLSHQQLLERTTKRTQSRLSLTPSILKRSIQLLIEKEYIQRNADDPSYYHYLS
UniProt P47050: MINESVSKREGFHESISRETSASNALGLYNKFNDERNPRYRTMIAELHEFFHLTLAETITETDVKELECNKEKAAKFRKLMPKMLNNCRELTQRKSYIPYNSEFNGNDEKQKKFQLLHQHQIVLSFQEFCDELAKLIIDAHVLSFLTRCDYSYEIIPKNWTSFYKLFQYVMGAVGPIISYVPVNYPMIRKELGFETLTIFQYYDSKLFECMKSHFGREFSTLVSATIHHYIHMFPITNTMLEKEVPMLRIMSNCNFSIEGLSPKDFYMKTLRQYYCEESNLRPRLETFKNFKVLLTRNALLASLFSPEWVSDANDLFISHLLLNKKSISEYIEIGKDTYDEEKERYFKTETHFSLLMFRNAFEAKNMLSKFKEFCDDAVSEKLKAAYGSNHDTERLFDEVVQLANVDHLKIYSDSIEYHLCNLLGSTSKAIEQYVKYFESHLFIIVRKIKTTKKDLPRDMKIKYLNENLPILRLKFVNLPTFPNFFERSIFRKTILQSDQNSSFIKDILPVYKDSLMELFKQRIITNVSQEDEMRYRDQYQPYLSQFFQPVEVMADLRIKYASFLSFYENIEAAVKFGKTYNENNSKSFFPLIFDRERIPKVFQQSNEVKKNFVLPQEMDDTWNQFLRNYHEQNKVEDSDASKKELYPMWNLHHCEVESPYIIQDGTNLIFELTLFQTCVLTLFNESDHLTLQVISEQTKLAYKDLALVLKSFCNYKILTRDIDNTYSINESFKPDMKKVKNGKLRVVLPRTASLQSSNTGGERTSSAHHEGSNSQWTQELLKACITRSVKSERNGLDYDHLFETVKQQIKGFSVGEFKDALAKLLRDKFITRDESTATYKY

Columns and labels:
[1] = target: T1, CDC53 fused to the Gal4 DNA binding domain (pGBT8-CDC53) (yeast; S. cerevisiae) (UniProt P04386+Q12018); assay: yeast two-hybrid in HF7c cells
[2] = target: T2, CUL-B (ORF YGR003w) fused to the Gal4 DNA binding domain (yeast; S. cerevisiae) (UniProt P04386+P53202); assay: yeast two-hybrid in HF7c cells
[3] = target: T3, CUL-C (ORF YJL047c) fused to the Gal4 DNA binding domain (yeast; S. cerevisiae) (UniProt P04386+P47050); assay: yeast two-hybrid in HF7c cells
[4] = target: T1, CDC53 fused to the Gal4 DNA binding domain (pGBT8-CDC53) (yeast; S. cerevisiae); assay: yeast two-hybrid, activation of the histidine reporter gene
[5] = target: T2, CUL-B (ORF YGR003w) fused to the Gal4 DNA binding domain (yeast; S. cerevisiae); assay: as above
[6] = target: T3, CUL-C (ORF YJL047c) fused to the Gal4 DNA binding domain (yeast; S. cerevisiae); assay: as above

Measured: binding

B1: ScROC1 fused to the GAL4 activation domain (pGAD-ScROC1) (protein, S. cerevisiae, UniProt Q08273 1-121, looked up, not shown: large carriers)
chain: MSNEVDRMDVDEDESQNIAQSSNQSAPVETKKKRFEIKKWTAVAFWSWDIAVDNCAICRNHIMEPCIECQPKAMTDTDNECVAAWGVCNHAFHLHCINKWIKTRDACPLDNQPWQLARCGR
binds: all assays above
